Values from PubChem BioAssay AID1259308 (NCATS, 2017).
The deposit covers about 59,000 reagents; shown is an unselected part. About 1,510 of all reagents (2.6%) count as active. 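Calls use total luciferase alone and ignore viability, so some active siRNAs may act by altering cell number.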 Unmarked entries are inactive. The numbers tell different reagents against one gene apart.

- Test: 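Candidate targets for better recombinant protein yield in mammalian cells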 (primary screen)
- Cells: human HEK293 embryonic kidney cells stably expressing firefly luciferase (HEK-CMV-Luc2-Hygro)
- Reagent: single siRNA against human genes, 0.8 pmol siRNA per well
- Timing: 72 h
- Detection: 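Luciferase light (ONE-Glo) measured on one replicate plate set and viability (CellTiter-Glo) on the other, scaled to a negative control siRNA, with robust z-scores and luciferase per cell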
- Direction: total luciferase, z-score and total luciferase, % of control: higher = more reporter protein produced; luciferase per cell, z-score: higher = more reporter output per viable cell; viable cells, % of control: higher = more viable cells
- Call rule: 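An siRNA counts as active if its total luciferase robust z-score exceeds 3; genes with two or more such siRNAs out of three were retested with fresh siRNAs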
- Meaning of the calls: active = raised luciferase; inactive = no rise

target gene,reagent,"total luciferase, z-score","total luciferase, % of control","luciferase per cell, z-score","viable cells, % of control"
SIGLECL1 (GeneID 284369),1,-0.384,74.3,0.337,75.9
SIGLECL1 (GeneID 284369),2,-1.91,43.9,0.511,42.9
SIGLECL1 (GeneID 284369),3,0.415,90.1,0.161,96.6
TCF15 (GeneID 6939),1,-0.192,78.1,-0.5,99.5
TCF15 (GeneID 6939),2,-0.509,71.8,-0.537,92.4
TCF15 (GeneID 6939),3,0.277,87.4,0.149,93.9
RPL21P131 (GeneID 388532),1,-2.71,27.9,-1.66,48.3
RPL21P131 (GeneID 388532),2,-1.46,52.9,-1.48,87.3
RPL21P131 (GeneID 388532),3,-1.16,58.8,-0.474,74.4
CNTN3 (GeneID 5067),1,-1.12,59.6,-0.381,73.6
CNTN3 (GeneID 5067),2,0.216,86.2,0.0398,95.3
CNTN3 (GeneID 5067),3,-0.55,70.9,-0.685,94.9
POLR3D (GeneID 661),1,0.685,95.5,0.401,96
POLR3D (GeneID 661),2,-1.36,54.9,-1.32,86.9
POLR3D (GeneID 661),3,0.0768,83.4,0.343,85.2
GLYCTK (GeneID 132158),1,2.52,132,2.04,86.2
GLYCTK (GeneID 132158),2,1.06,103,0.838,92.2
GLYCTK (GeneID 132158),3,2.47,131,1.84,90.3
CAPN10 (GeneID 11132),1,-0.386,74.2,-0.574,96.5
CAPN10 (GeneID 11132),2,-2.69,28.4,-1.97,53.4
CAPN10 (GeneID 11132),3,-1.73,47.6,-1.63,81.7
TMEM179 (GeneID 388021),1,-0.401,73.9,-0.688,99
TMEM179 (GeneID 388021),2,-0.0135,81.6,-0.243,97.2
TMEM179 (GeneID 388021),3,0.288,87.6,-0.803,121
MTERF4 (GeneID 130916),1,0.205,86,-0.26,103
MTERF4 (GeneID 130916),2,0.205,86,-0.036,97
MTERF4 (GeneID 130916),3,0.557,93,0.136,100
HECTD4 (GeneID 283450),1,1.26,107,0.635,101
HECTD4 (GeneID 283450),2,-0.781,66.3,-0.722,89.7
HECTD4 (GeneID 283450),3,2.8,138,1.83,95.1
HECTD4 (GeneID 283450),4,-0.643,69.1,-0.429,86.5
HECTD4 (GeneID 283450),5,0.533,92.5,0.254,96.7
HECTD4 (GeneID 283450),6,0.0135,82.2,-0.0415,92.8
SNRPF (GeneID 6636),1,3.7 (active),155,4.38,54.9
SNRPF (GeneID 6636),2,3.39 (active),149,2.82,79.4
SNRPF (GeneID 6636),3,0.665,95.1,2.14,60.4
TPD52L2 (GeneID 7165),1,-0.743,67.1,0.174,71.6
TPD52L2 (GeneID 7165),2,2.01,122,3.1,60.2
TPD52L2 (GeneID 7165),3,-0.698,68,-0.442,85.4
CDC40 (GeneID 51362),1,1.18,105,1.32,83
CDC40 (GeneID 51362),2,0.248,86.8,0.419,86.9
CDC40 (GeneID 51362),3,2.4,130,2.89,67.6
EOMES (GeneID 8320),1,0.864,99.1,0.517,96.6
EOMES (GeneID 8320),2,-0.801,66,-0.627,86.9
EOMES (GeneID 8320),3,0.407,90,-0.17,105
PHKG1 (GeneID 5260),1,-0.73,67.4,-0.969,97.1
PHKG1 (GeneID 5260),2,-0.331,75.3,-1.01,110
PHKG1 (GeneID 5260),3,0.0764,83.4,-0.342,102
SCARA3 (GeneID 51435),1,-0.638,69.2,-1.18,105
SCARA3 (GeneID 51435),2,-0.617,69.6,-1.12,105
SCARA3 (GeneID 51435),3,-0.307,75.8,-0.804,105
FCF1 (GeneID 51077),1,-1.88,44.5,-2.31,91.3
FCF1 (GeneID 51077),2,-2.26,36.9,-2.44,78.4
FCF1 (GeneID 51077),3,-2.38,34.6,-3.13,88.1
ERCC5 (GeneID 2073),1,-0.642,69.1,-0.73,93.6
ERCC5 (GeneID 2073),2,-2.84,25.4,-3.43,70
ERCC5 (GeneID 2073),3,0.42,90.2,0.104,98.1

7 successive records from above:
target gene,reagent,"total luciferase, z-score","total luciferase, % of control","luciferase per cell, z-score","viable cells, % of control"
POLR3D (GeneID 661),1,0.685,95.5,0.401,96
POLR3D (GeneID 661),2,-1.36,54.9,-1.32,86.9
POLR3D (GeneID 661),3,0.0768,83.4,0.343,85.2
GLYCTK (GeneID 132158),1,2.52,132,2.04,86.2
GLYCTK (GeneID 132158),2,1.06,103,0.838,92.2
GLYCTK (GeneID 132158),3,2.47,131,1.84,90.3
CAPN10 (GeneID 11132),1,-0.386,74.2,-0.574,96.5
